PubChem BioAssay AID602196 | INSERM | 2012
This is an unselected part of about 23,000 reagents tested. 455 of them (2%) were called active. 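Active includes both protection and sensitisation; some change values fall well beyond the stated -50 to +50 range.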 Entries without a mark were called inactive. Further read-outs or replicates are left out here. No sequences are given here. Not given: the amount of reagent.

Screen: 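Knock-downs that protect lung cancer cells from cisplatin or sensitise them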
Cells: human A549 lung cancer cells
Reagents: siRNA pair against human genes
Timing: 48 h transfection before cisplatin; time from cisplatin to read-out not stated
Treatment: cisplatin at a dose killing half of control-siRNA cells; exact dose and duration not given
Measurement: 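Shift in cisplatin death relative to control siRNA, from -50 (all cells die) to +50 (no cells die); siRNAs harmful on their own scored 0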
Reading the numbers: two-siRNA summed score (-2 to +2): higher = both siRNAs protect from cisplatin killing; -2 means both sensitise
Active means: 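Each siRNA scores 0 if harmful alone by LDH or WST-1, otherwise +1 if it reduces and -1 if it increases cisplatin killing; a gene is active when both siRNAs agree (sum +2 or -2)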
Calls: active = both siRNAs shift cisplatin killing the same way; inactive = no consistent shift, or siRNA harmful alone

{"gene":"SERPINI1","PubChem SID":"SID131513399","two-siRNA summed score (-2 to +2)":0}
{"gene":"RYR2","PubChem SID":"SID131514472","two-siRNA summed score (-2 to +2)":0}
{"gene":"LOC402628","PubChem SID":"SID131506016","two-siRNA summed score (-2 to +2)":0}
{"gene":"LSM3","PubChem SID":"SID131509656","two-siRNA summed score (-2 to +2)":0}
{"gene":"PDC","PubChem SID":"SID131513651","two-siRNA summed score (-2 to +2)":0}
{"gene":"GOLGA2P10","PubChem SID":"SID131516664","two-siRNA summed score (-2 to +2)":0}
{"gene":"RPL31","PubChem SID":"SID131518861","two-siRNA summed score (-2 to +2)":0}
{"gene":"ZDHHC11","PubChem SID":"SID131501276","two-siRNA summed score (-2 to +2)":-1}
{"gene":"LINC00518","PubChem SID":"SID131521767","two-siRNA summed score (-2 to +2)":1}
{"gene":"TBX5","PubChem SID":"SID131504840","two-siRNA summed score (-2 to +2)":0}
{"gene":"POLR3GL","PubChem SID":"SID131521411","two-siRNA summed score (-2 to +2)":1}
{"gene":"RANBP17","PubChem SID":"SID131514018","two-siRNA summed score (-2 to +2)":0}
{"gene":"DUX1","PubChem SID":"SID131500745","two-siRNA summed score (-2 to +2)":-1}
{"gene":"LOC390801","PubChem SID":"SID131523049","two-siRNA summed score (-2 to +2)":"2 (active)"}
{"gene":"ZNF155","PubChem SID":"SID131504503","two-siRNA summed score (-2 to +2)":0}
{"gene":"NR4A2","PubChem SID":"SID131503408","two-siRNA summed score (-2 to +2)":0}
{"gene":"SLC17A9","PubChem SID":"SID131503419","two-siRNA summed score (-2 to +2)":0}
{"gene":"LOC253584","PubChem SID":"SID131511153","two-siRNA summed score (-2 to +2)":0}
{"gene":"VPS72","PubChem SID":"SID131513561","two-siRNA summed score (-2 to +2)":0}
{"gene":"ST8SIA3","PubChem SID":"SID131509342","two-siRNA summed score (-2 to +2)":0}
{"gene":"DNAJA3","PubChem SID":"SID131511722","two-siRNA summed score (-2 to +2)":0}
{"gene":"LOC340765","PubChem SID":"SID131518597","two-siRNA summed score (-2 to +2)":0}
{"gene":"LOC390403","PubChem SID":"SID131522596","two-siRNA summed score (-2 to +2)":1}
{"gene":"POLN","PubChem SID":"SID131515932","two-siRNA summed score (-2 to +2)":0}
{"gene":"SLIRP","PubChem SID":"SID131509695","two-siRNA summed score (-2 to +2)":0}
{"gene":"TRIM15","PubChem SID":"SID131501923","two-siRNA summed score (-2 to +2)":-1}
{"gene":"HNRNPA0","PubChem SID":"SID131511587","two-siRNA summed score (-2 to +2)":0}
{"gene":"SYNGR1","PubChem SID":"SID131504861","two-siRNA summed score (-2 to +2)":0}
{"gene":"CHRNA1","PubChem SID":"SID131502011","two-siRNA summed score (-2 to +2)":-1}
{"gene":"SBDS","PubChem SID":"SID131509124","two-siRNA summed score (-2 to +2)":0}
{"gene":"LOC389786","PubChem SID":"SID131523233","two-siRNA summed score (-2 to +2)":"2 (active)"}
{"gene":"PEA15","PubChem SID":"SID131504468","two-siRNA summed score (-2 to +2)":0}
{"gene":"PAN2","PubChem SID":"SID131506500","two-siRNA summed score (-2 to +2)":0}
{"gene":"MYL12A","PubChem SID":"SID131520685","two-siRNA summed score (-2 to +2)":1}
{"gene":"LOC107984784","PubChem SID":"SID131512059","two-siRNA summed score (-2 to +2)":0}
{"gene":"LOC440713","PubChem SID":"SID131518788","two-siRNA summed score (-2 to +2)":0}
{"gene":"UBE2D4","PubChem SID":"SID131517876","two-siRNA summed score (-2 to +2)":0}
{"gene":"FRA10AC1","PubChem SID":"SID131511285","two-siRNA summed score (-2 to +2)":0}
{"gene":"PRPH","PubChem SID":"SID131505650","two-siRNA summed score (-2 to +2)":0}
{"gene":"MGC42630","PubChem SID":"SID131502510","two-siRNA summed score (-2 to +2)":-1}

No new results follow: 6 of the entries above.
{"gene":"LOC253584","PubChem SID":"SID131511153","two-siRNA summed score (-2 to +2)":0}
{"gene":"VPS72","PubChem SID":"SID131513561","two-siRNA summed score (-2 to +2)":0}
{"gene":"ST8SIA3","PubChem SID":"SID131509342","two-siRNA summed score (-2 to +2)":0}
{"gene":"DNAJA3","PubChem SID":"SID131511722","two-siRNA summed score (-2 to +2)":0}
{"gene":"LOC340765","PubChem SID":"SID131518597","two-siRNA summed score (-2 to +2)":0}
{"gene":"LOC390403","PubChem SID":"SID131522596","two-siRNA summed score (-2 to +2)":1}
